Test results as given in US20110294982A1 (Ablynx, published 2011).

Amino acid sequences for entries named in this document (tags omitted). A change or cut given only in a name is not applied to a line headed by its entry.
UniProt P26006: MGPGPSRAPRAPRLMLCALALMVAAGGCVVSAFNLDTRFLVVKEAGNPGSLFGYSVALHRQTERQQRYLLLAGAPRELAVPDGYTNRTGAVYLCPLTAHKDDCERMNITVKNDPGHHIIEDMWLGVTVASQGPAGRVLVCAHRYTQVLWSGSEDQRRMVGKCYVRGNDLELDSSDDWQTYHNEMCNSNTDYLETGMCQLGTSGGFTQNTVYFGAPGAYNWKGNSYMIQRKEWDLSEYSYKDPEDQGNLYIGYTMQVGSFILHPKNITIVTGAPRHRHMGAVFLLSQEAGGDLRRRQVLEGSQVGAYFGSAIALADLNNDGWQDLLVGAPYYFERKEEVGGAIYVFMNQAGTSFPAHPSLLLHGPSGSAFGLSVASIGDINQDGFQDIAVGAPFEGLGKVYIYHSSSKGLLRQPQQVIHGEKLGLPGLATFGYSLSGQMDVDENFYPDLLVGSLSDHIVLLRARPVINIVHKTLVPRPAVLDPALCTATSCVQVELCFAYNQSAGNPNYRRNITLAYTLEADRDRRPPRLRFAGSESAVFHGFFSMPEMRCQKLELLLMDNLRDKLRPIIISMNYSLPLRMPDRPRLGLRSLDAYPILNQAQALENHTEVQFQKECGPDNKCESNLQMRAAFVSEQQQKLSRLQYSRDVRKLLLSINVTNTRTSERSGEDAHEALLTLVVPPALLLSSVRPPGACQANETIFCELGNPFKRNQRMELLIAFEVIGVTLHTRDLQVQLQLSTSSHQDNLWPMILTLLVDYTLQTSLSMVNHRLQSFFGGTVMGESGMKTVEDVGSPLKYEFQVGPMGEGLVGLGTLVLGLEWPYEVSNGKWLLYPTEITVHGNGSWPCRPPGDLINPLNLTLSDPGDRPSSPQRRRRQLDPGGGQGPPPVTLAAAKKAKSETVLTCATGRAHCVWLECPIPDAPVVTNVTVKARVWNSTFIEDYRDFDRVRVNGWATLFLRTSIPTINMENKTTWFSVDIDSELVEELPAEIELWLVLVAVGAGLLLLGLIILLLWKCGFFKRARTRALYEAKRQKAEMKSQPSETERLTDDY

Molecular target: α3β1 (VLA-3) integrin of cells (HeLa cells; K562A3 transfectants) (human) (UniProt P26006)
Assay: immunoprecipitation from HeLa cell lysate, mass spectrometry of the 150 kDa band

B1: VHH-H6 (VHH)
VHH: QVQLQDSGGGLVQAGGSLRLSCEASGRTFSSYAMGWFRQPPGKEREWVSTISRSGSAIYAYPVKGRFTMSRDNAKNTVYLEMNSLKPEDTAVFYCAAARSGVPSSRPTDYDYWGQGTQVTVSS
notes: Used with a Myc tag (captured/detected with anti-Myc 9E10) and a C-terminal His6 tag (detected with anti-HIS6 (C-term)); also called H6-VHH
- binding: binds

Results are given in words; binding and its absence hold for the method and conditions named. Binding seen in cells or lysates may run through a third protein. These calls come from enrichment with a bait or labelling near it, and not all partners need be listed.
